The campaign covered roughly 340,000 compounds. About 4,500 (1.3%) were called active. Inconclusive results, whose numbers are uncertain, are shown with a selection of clear calls. Calls follow the shape of the dose curve; as a rule, active = well fitted inhibition curve with a large enough effect; inconclusive = small, poorly fitted or top-dose-only effect, or another doubt; inactive = no such curve, though single readings can be large or run the other way. A potency beside an inconclusive call is a rough fit, not a confirmed value.
target: DNA polymerase beta (Homo sapiens) (UniProt P06746); assay: qHTS Assay for Inhibitors of DNA Polymerase Beta; conditions: Pol beta primer extension/strand displacement, fluorescence kinetic; activity change, negative = inhibition: at 114 µM (top of the series)
In short: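 Kinetic readout of DNA synthesis with strand displacement by Pol beta. Compound and 10 nM enzyme sit 15 min at room temperature; 50 nM substrate starts the reaction, read immediately and at 10 min.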
% is scaled to controls: 0 for no effect and ±100 for the full control effect; potency is read from the fitted curve at half-maximal effect.

Potency, inactive:
COc1ccc(-n2ncc(C(=O)N3CCN(Cc4ccccc4)CC3)c2C2CCN(C(=O)OC(C)(C)C)CC2)cc1
CCSc1nnc(N2C(=O)c3ccc(C(=O)c4ccc(C(=O)O)cc4)cc3C2=O)s1
CC(C)c1ccc(NC2CCCN(C(=O)CSc3nncn3C)C2)cc1 (stereo not drawn)
Cc1nc(CN(C)C(=O)CC2C(=O)NCCN2Cc2ccc(-c3ccccc3)cc2)cs1 (stereo not drawn)
CCN(CC)C(=O)Cn1c(=O)cc(C)c2c(C)nn(-c3cccc(Cl)c3C)c21
O=C(O)c1ccc(S(=O)(=O)c2ccccc2)cc1
COCc1ccc(CN2CCC(C(=O)Nc3cccc(-c4cscn4)c3)CC2)o1
COc1ccc(-n2nc(C(=O)Nc3ccccn3)c3c4ccccc4n(C)c3c2=O)cc1
CCCCOc1ccc(N(CC(=O)NC2CCCCC2)C(=O)c2snc(C(N)=O)c2N)cc1
Clc1ccc(OCc2nc(-c3ccccn3)no2)c(Br)c1
COc1ccc(C(=O)NNC(=O)CN2CCC(n3nnc4cc(C(F)(F)F)ccc43)CC2)cc1
Cc1ccc(S(=O)(=O)NNC(=O)c2cc3cc4ccccc4nc3s2)cc1
CC1=NN(c2ccccc2)C(=O)/C1=C\C=C1/N(C)c2ccccc2C1(C)C
COc1ccccc1C(=O)Nc1ccccc1OCc1cc(=O)n2c(C)csc2n1
COc1ccc(-c2ccc3c(N)c(C(=O)c4ccc(OC)c(OC)c4)sc3n2)cc1
CCC(C)NC(=O)CCCN1C(=O)CCn2nc(-c3cccn3C)cc21 (stereo not drawn)
CCc1cccc(NC(=O)COC(=O)c2cn(CC)c3nc(C)ccc3c2=O)c1
COC(=O)c1cc(OC)c(OC)cc1N

Compounds listed so far with four or more nitrogen atoms, in the order listed:
Potency, inactive:
COc1ccc(-n2ncc(C(=O)N3CCN(Cc4ccccc4)CC3)c2C2CCN(C(=O)OC(C)(C)C)CC2)cc1
CC(C)c1ccc(NC2CCCN(C(=O)CSc3nncn3C)C2)cc1 (stereo not drawn)
Cc1nc(CN(C)C(=O)CC2C(=O)NCCN2Cc2ccc(-c3ccccc3)cc2)cs1 (stereo not drawn)
CCN(CC)C(=O)Cn1c(=O)cc(C)c2c(C)nn(-c3cccc(Cl)c3C)c21
COc1ccc(-n2nc(C(=O)Nc3ccccn3)c3c4ccccc4n(C)c3c2=O)cc1
CCCCOc1ccc(N(CC(=O)NC2CCCCC2)C(=O)c2snc(C(N)=O)c2N)cc1
COc1ccc(C(=O)NNC(=O)CN2CCC(n3nnc4cc(C(F)(F)F)ccc43)CC2)cc1
CCC(C)NC(=O)CCCN1C(=O)CCn2nc(-c3cccn3C)cc21 (stereo not drawn)

Next part.

Potency, inconclusive:
O=C1C(NS(=O)(=O)c2cccs2)=C(N2CCN(Cc3ccccc3)CC2)C(=O)c2ccccc21 79.4 µM [inhibitor, single point]
Cc1c(NC(=O)CN2CCN(c3ccc(O)cc3)CC2)c(=O)n(-c2ccccc2)n1C 39.8 µM [inhibitor, single point]
O=C(CN1C(=O)/C(=C/c2ccccc2F)SC1=S)NC1C=CS(=O)(=O)C1 (stereo not drawn) 100 µM [inhibitor, partial curve, poor fit]
O=C(Nc1ccc(N2CCOCC2)c(Cl)c1)c1ccc2c(c1)OCCO2 89.1 µM [inhibitor, single point]
CCc1ccc(NC(=O)CSc2nc3n[nH]c(C)c3c(=N)n2-c2ccc(C)cc2)cc1 79.4 µM [inhibitor, single point]
Cc1[nH]c2ccccc2c1/C=N/NC(=O)CNC(=O)COc1ccccc1 17.8 µM [inhibitor, single point]
O=C(COc1ccccc1/C=C1\SC(=O)NC1=O)Nc1ccc(F)cc1 39.8 µM [inhibitor, single point]
Brc1cccc(OCCN2CCCCC2)c1 79.4 µM [inhibitor, single point]
O=c1cc(-c2ccccc2)[nH]n1-c1nc2ccccc2[nH]1 39.8 µM [inhibitor, partial curve]
COC(=O)c1c(NC(=O)COC(=O)CCc2ccc(S(=O)(=O)N3CCOCC3)cc2)sc2c1CCC2 79.4 µM [inhibitor, single point]
CCOc1ccc(Nc2oc(-c3ccc(COc4ccc(OC)cc4)o3)nc2C#N)cc1 89.1 µM [inhibitor, single point]
COc1ccc(N(C(=O)c2cnccn2)C(C(=O)NC2CCCCC2)c2ccc(O)cc2)cc1 (stereo not drawn) 89.1 µM [inhibitor, single point]
c1ccc(Cn2nnnc2C(c2cccs2)N2CCCCCC2)cc1 (stereo not drawn) 2.82 µM [inhibitor, single point]
CNS(=O)(=O)c1cc(S(=O)(=O)NC)c2cccc3c2c1NC3=O 25.1 µM [inhibitor, partial curve, poor fit]
Cc1ccnc(NC(=O)c2cccc3ccccc23)c1 89.1 µM [inhibitor, single point]
O=c1cc(CSc2nnc3ccccn23)c2c(ccc3ccccc32)o1 89.1 µM [inhibitor, single point]
COc1ccc(OC)c(S(=O)(=O)N2CCCC(C(=O)NCCc3ccccc3)C2)c1 (stereo not drawn) 63.1 µM [inhibitor, single point]
CCN(CC)CCNc1nc2cc(OC)c(OC)cc2c2nc(-c3ccccc3)nn12 2.51 µM [inhibitor, full curve]
CN(C)c1ccc(P(=O)(OCc2ccccc2)C(O)c2ccc(Cl)cc2)cc1 (stereo not drawn) 5.62 µM [inhibitor, full curve]
CCOC(=O)C1=C(C)N=c2s/c(=C/c3cccc([N+](=O)[O-])c3O)c(=O)n2C1c1ccccc1 (stereo not drawn) 63.1 µM [inhibitor, single point]
CCN(CC)c1ccc2nc3ccccc3[n+](CC)c2c1 100 µM [inhibitor, single point]
O=C(O)c1ccccc1-c1ccc(/C=c2\sc3nc4cc(Br)cnc4n3c2=O)o1 22.4 µM [inhibitor, full curve]
COc1ccc(NC(=O)Cn2c(=O)n(-c3cc(C)cc(C)c3)c(=O)c3oc4ccccc4c32)cc1OC 89.1 µM [inhibitor, single point]
CC(C)CC(OC(=O)c1cccs1)C(=O)NCc1ccco1 (stereo not drawn) 25.1 µM [inhibitor, full curve]
Cc1cc(NC(=O)c2cc(-c3ccc(Br)cc3)on2)no1 50.1 µM [inhibitor, partial curve]
CCOC(=O)C1=C(COC(=O)Cc2ccc(Br)cc2)NC(=O)NC1C (stereo not drawn) 89.1 µM [inhibitor, single point]
Cc1cc(C(C)(C)C)cc(C)c1N 89.1 µM [inhibitor, single point]
NC(=O)c1ccccc1N/C=C/C(=O)c1ccco1 14.1 µM [inhibitor, full curve, poor fit]
Cc1cc(C)cc(NC(=O)Cn2c(-c3cncs3)nc3ccccc32)c1 39.8 µM [inhibitor, partial curve]
CCn1c2ccccc2c2cc(NC(=O)c3ccccc3-c3ccccc3C(=O)O)ccc21 89.1 µM [inhibitor, single point]
CCOc1ccccc1NC(=O)CSC1=NN2CCCC(=O)N=C2S1 50.1 µM [inhibitor, partial curve]
COc1cccc(CNS(=O)(=O)c2ccc3c(c2)C(C)(C)C(=O)N3C)c1 50.1 µM [inhibitor, single point]
COc1cccc(C(=O)NNC(=O)/C=C/c2ccccc2)c1 39.8 µM [inhibitor, single point]
O=C(Nc1ccc(-c2csc(Nc3ccccc3)n2)cc1)c1cccc(C(F)(F)F)c1 39.8 µM [inhibitor, full curve]
CCC(=O)NCCc1nc2ccccc2n1Cc1ccccc1 89.1 µM [inhibitor, single point]
COc1cccc(C(C)NC(=O)Nc2cccc(C(F)(F)F)c2)c1 (stereo not drawn) 22.4 µM [inhibitor, full curve, poor fit]
COc1cc(NS(=O)(=O)c2ccc(NC(=S)NC(=O)COc3ccccc3OC)cc2)nc(OC)n1 89.1 µM [inhibitor, single point]
COCCNC(=O)c1c[nH]c2ccc(S(=O)(=O)Nc3ccccc3F)cc2c1=O 79.4 µM [inhibitor, partial curve]
COc1ccc(Nc2ccc3c(c2)=NC2(CCCCC2)[N+]=3[O-])cc1 0.708 µM [inhibitor, full curve, poor fit]
COc1ccc2c(c1)c(=O)oc1c(C)c(OC(C)C(=O)N[C@@H](Cc3c[nH]c4ccc(O)cc34)C(=O)O)ccc12 (stereo partly drawn) 7.94 µM [inhibitor, full curve]

Reprinted at random: 2 entries already listed
Potency, inconclusive:
NC(=O)c1ccccc1N/C=C/C(=O)c1ccco1 14.1 µM [inhibitor, full curve, poor fit]
CCc1ccc(NC(=O)CSc2nc3n[nH]c(C)c3c(=N)n2-c2ccc(C)cc2)cc1 79.4 µM [inhibitor, single point]

Next part.

Potency, active:
Nc1ccc(N)c(C(=O)O)c1 0.398 µM
COc1ccccc1-c1nn2c(-c3ccco3)nnc2s1 14.1 µM
O=c1cc(CN2CCN(c3ccc(O)cc3)CC2)nc2scc(-c3ccccc3)n12 11.2 µM
CCc1ccc(C(=O)c2cn(CC(=O)Nc3ccc4c(c3)OCO4)c3ccc(CC)cc3c2=O)cc1 4.47 µM
CC(C)C(NC(=O)/C(=C/c1ccco1)NC(=O)c1ccc(Br)o1)C(=O)O (stereo not drawn) 39.8 µM
CCOc1cc(/C=C(\C#N)C(=O)Nc2cccc(C(=O)O)c2)cc(Br)c1OC(=O)c1ccc(OC)cc1 15.8 µM
O=C(NNC(=O)c1ccc(NC(=O)c2ccccc2)cc1)c1ccccc1 79.4 µM

Activity change, negative = inhibition, inconclusive:
Cc1ccc(Cn2c(SCC(=O)N/N=C/c3ccccc3OCC(=O)O)nc3ccccc32)cc1 -36.3% [inhibitor]
COc1ccccc1/C=C1\SC(=S)N(NS(=O)(=O)c2ccc(C)cc2)C1=O -81.4% [inhibitor]
COc1ccc(/C=C2\Sc3ccc(C(=O)NCC4CCCO4)cc3N(C)C2=O)cc1 (stereo not drawn) -51.1% [inhibitor]

Source: PubChem BioAssay AID485314 (National Center for Advancing Translational Sciences (NCATS), 2010)
